Experimental data as given in paper PMC11989440.
No constants are given. Whether binding was seen depends on the method and setting. Binding seen in cells or lysates may run through a third protein. Binding can be weak; no strength is given.

Amino acid sequences for entries named in this document (tags omitted). A change or cut given only in a name is not applied to a line headed by its entry.
UniProt Q8N4S9: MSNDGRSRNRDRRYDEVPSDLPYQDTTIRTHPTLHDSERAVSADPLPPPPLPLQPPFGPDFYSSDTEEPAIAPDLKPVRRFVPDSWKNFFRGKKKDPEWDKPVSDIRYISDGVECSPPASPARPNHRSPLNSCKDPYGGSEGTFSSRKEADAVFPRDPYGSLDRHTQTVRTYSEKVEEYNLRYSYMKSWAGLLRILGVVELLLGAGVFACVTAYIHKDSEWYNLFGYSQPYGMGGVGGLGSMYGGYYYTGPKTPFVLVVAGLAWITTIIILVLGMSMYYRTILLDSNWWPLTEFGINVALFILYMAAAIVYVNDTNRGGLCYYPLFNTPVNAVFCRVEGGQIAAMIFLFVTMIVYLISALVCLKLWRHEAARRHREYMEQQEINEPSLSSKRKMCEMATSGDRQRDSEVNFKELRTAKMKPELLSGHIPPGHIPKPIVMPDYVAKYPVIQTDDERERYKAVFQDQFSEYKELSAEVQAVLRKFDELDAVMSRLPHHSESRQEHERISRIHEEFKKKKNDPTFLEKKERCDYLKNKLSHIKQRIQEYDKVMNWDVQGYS
UniProt Q07157: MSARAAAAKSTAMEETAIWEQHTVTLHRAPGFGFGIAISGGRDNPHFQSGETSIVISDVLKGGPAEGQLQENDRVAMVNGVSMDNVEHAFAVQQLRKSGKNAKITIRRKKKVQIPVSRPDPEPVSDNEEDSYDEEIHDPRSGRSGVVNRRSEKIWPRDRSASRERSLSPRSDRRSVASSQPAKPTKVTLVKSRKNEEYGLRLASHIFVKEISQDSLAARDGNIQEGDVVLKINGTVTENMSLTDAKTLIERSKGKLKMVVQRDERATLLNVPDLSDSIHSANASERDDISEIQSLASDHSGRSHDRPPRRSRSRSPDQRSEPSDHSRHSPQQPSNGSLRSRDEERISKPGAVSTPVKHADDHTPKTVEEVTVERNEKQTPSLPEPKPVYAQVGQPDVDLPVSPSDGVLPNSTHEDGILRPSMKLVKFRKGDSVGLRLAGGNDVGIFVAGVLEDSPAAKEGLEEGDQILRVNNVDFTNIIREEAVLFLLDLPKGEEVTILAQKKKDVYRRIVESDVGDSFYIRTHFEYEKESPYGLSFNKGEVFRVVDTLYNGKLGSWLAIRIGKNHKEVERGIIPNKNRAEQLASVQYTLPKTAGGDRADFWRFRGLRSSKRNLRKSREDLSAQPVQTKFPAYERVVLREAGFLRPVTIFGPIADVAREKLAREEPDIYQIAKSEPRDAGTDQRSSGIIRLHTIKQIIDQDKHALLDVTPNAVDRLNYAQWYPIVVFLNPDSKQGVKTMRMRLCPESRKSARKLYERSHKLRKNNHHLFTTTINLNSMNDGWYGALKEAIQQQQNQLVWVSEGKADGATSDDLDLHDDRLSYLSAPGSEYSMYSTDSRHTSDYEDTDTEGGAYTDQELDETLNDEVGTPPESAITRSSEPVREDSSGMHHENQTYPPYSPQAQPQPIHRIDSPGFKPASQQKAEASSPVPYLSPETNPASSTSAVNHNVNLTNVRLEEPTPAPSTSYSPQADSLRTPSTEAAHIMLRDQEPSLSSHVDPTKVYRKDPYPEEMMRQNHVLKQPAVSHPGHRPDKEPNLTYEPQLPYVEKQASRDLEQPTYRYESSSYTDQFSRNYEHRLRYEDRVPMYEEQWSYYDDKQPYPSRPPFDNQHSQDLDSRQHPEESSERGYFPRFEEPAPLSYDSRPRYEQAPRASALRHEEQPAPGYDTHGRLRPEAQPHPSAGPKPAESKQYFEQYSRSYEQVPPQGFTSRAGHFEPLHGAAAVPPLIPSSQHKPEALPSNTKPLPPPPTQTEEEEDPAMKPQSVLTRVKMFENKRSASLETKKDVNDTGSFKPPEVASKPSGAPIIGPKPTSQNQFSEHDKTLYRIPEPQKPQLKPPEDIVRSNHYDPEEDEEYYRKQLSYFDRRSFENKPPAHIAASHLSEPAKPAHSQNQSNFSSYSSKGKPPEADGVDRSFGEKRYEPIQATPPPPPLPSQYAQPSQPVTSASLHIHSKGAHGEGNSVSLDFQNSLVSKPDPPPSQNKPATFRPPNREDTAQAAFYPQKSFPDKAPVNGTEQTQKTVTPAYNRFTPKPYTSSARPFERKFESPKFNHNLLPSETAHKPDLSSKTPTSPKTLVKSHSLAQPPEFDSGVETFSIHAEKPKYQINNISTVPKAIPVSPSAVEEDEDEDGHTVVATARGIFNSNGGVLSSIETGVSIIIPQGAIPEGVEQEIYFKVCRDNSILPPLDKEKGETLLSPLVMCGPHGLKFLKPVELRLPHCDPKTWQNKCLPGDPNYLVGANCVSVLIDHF

Biological target: MARVELD2 p.(Val354Serfs*5) mutant, FLAG-tagged (human) (UniProt Q8N4S9)
Assay: co-IP; lysates of HEK-293 cells 48 h after transfection with FLAG-MARVELD2 wild type or mutant; 100 ug protein; antibodies against ZO-1, FLAG or IgG control at 4 °C overnight, protein A agarose beads; SDS-PAGE and blot stained for ZO-1; lysis buffer with NaCl, 1% Triton X-100, 0.1% SDS, Tris pH 7.5, 1% deoxycholate

binding: binds
Substance: zonula occludens-1 (ZO-1) (from UniProt Q07157 1-1748)
